Experimental findings from article PMC7819943, “Rice protein-binding microarrays: a tool to detect cis-acting elements near promoter regions in rice” are described below.

The chains behind the UniProt entries cited, without tags or fusion partners.
UniProt Q0JBA9, entry or part of it: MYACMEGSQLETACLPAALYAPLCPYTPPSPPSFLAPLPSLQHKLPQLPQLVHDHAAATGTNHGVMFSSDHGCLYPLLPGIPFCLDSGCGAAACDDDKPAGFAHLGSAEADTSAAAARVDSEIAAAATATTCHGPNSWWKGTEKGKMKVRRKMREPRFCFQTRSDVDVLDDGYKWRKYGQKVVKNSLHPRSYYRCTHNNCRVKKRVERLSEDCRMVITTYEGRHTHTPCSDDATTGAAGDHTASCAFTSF

Some of the results follow.

In this assay the target is OsWRKY34 (Oryza sativa, UniProt Q0JBA9 1-250). Briefly: protein-binding microarray (RPBM); PBS, 2% BSA, 51.3 ng/ul salmon testes DNA, 50 uM zinc acetate, 200 nM TF, 25 C, 1 h; high values mean tight binding. To be noted: protein: recombinant; tags: N-terminal polyhistidine and DsRed monomer fusion (pET32a); label: CyDye5-dUTP incorporated in the synthesized complementary strand; 3' TTTTT single-stranded linker to array surface; dsDNA, one strand shown. Put shortly: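 Using Ni–NTA, transcription factors fused N-terminally to polyhistidine and DsRed were purified after expression in E. coli BL21-CodonPlus. These were incubated at 200 nM with a blocked, double-stranded custom Agilent array for 1 h at 25 °C in a buffer containing 50 µM zinc acetate, and the array was washed. The binding signal is per-feature fluorescence intensity (arbitrary units) on an Axon 4000B scanner.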
With “GCCCCTTCATGCCGATATCCGGGCTTGTCGCCTCCACACCCGGAGTCACCTAGTGCAG”, the binding signal is 8970 fluorescence intensity (a.u.). For the sequence “CGCACACGCCTTGCACGACGCACTCATGCGCACCTGCTCCCGGAGTCACCTAGTGCAG”, the binding signal was 9670 fluorescence intensity (a.u.). The value for “CAATTGGTTGGGTTTCTTGTGCCTACCTGTGTTTAAGTTCCGGAGTCACCTAGTGCAG” was 9160 fluorescence intensity (a.u.); that for “ACTTTCTAGCATTACCCACATTCACATATATGTTAATAAACGGAGTCACCTAGTGCAG” was 8350 fluorescence intensity (a.u.); that for “CCTTTAATAGGTCAAGCCTTTTCTATTTACCCCTGTTCAACGGAGTCACCTAGTGCAG” was 10300 fluorescence intensity (a.u.).

In the case of “CATAGTATTAGGATGTGTCATATGCCATATTGGTTTTTTTCGGAGTCACCTAGTGCAG”, the binding signal was 9040 fluorescence intensity (a.u.). The value for “GGCTAGTGACTGTGGGGTTCAGCTTACTAGCCACCTTTATCGGAGTCACCTAGTGCAG” was 9680 fluorescence intensity (a.u.); that for “ATAATTGTCCTCTTGCACTCTTCATCTTGCCATGATTCAACGGAGTCACCTAGTGCAG” was 11900 fluorescence intensity (a.u.); that for “ACGTCCACCACCACCTCATCCTCCACCTCCACCATTGATTCGGAGTCACCTAGTGCAG” was 11700 fluorescence intensity (a.u.). To “TACACCACAGTAGCTGTCATCTCCTTATTTCACATTAGCTCGGAGTCACCTAGTGCAG” belongs 12900 fluorescence intensity (a.u.); to “GATCCGCTCAAAATCGCGCATCCAAACCCTCGCCCTCCTCCGGAGTCACCTAGTGCAG”, 9040 fluorescence intensity (a.u.); to “CCGAAATGCAGAGATTCATATCCATCCTTTGCCGCTTTTCCGGAGTCACCTAGTGCAG”, 9420 fluorescence intensity (a.u.). To “GCTGCTGTTCTTCGTATTTATTGCACCGTTTTTGCTACGCCGGAGTCACCTAGTGCAG” belongs 11600 fluorescence intensity (a.u.); to “CCACACACACACACACAAAAAAAAAAACCTCACGCGCGATCGGAGTCACCTAGTGCAG”, 9140 fluorescence intensity (a.u.). Take “GATGCGCCGAAATTGTATTGAACGTGTGTGTGTTTTTTATCGGAGTCACCTAGTGCAG”: the binding signal is 12400 fluorescence intensity (a.u.). The value for “GTCCACACACATGTACGTCGCGCTACGCGCCCGCGGCGCCCGGAGTCACCTAGTGCAG” was 8410 fluorescence intensity (a.u.); that for “AATTTAGACTGTTTGGATTTCATCTTATTTGTTTTTTTTCCGGAGTCACCTAGTGCAG” was 10800 fluorescence intensity (a.u.); that for “ATCTCGCCGCCGCTGCCGCCTTGTTCCCCTGCTCCCGCGTCGGAGTCACCTAGTGCAG” was 8100 fluorescence intensity (a.u.). To “CGCCGCCGCCTGTATGTCCATATGCTCCACCGTCTTCGTCCGGAGTCACCTAGTGCAG” belongs 10500 fluorescence intensity (a.u.); to “GGCCCACATATCAGTCACTACGTTCCTCTGACTTTACGTCCGGAGTCACCTAGTGCAG”, 9430 fluorescence intensity (a.u.); to “CATTTCTCTTCTGAAGCCTCCGGTCATCTTCAACGGACTCCGGAGTCACCTAGTGCAG”, 8240 fluorescence intensity (a.u.). To “CAGGGATGGTTAACGAGTATTAGAGGTTTGTGTGGGACTTCGGAGTCACCTAGTGCAG” belongs 9420 fluorescence intensity (a.u.); to “CACAGTTTCTCTCTGGCCGGTGGGTCTGCTTTATTCTGAACGGAGTCACCTAGTGCAG”, 11100 fluorescence intensity (a.u.); to “TCGGTCGGTACTCAGTTCTTTGCCAACTACCACTGTATAACGGAGTCACCTAGTGCAG”, 8690 fluorescence intensity (a.u.). Regarding “AGTTCAGCAATCCTCTGCTTTTGTCAGTTGTAGTTCACAACGGAGTCACCTAGTGCAG”, the binding signal was 9030 fluorescence intensity (a.u.). The value for “CAAATATATTGCTATTGCAGTTTTCCCACATTTTGCCTTTCGGAGTCACCTAGTGCAG” was 8030 fluorescence intensity (a.u.); that for “AAATGTATTTATTTTTTTTCTACTCCCTCCGCCCCTTAATCGGAGTCACCTAGTGCAG” was 8590 fluorescence intensity (a.u.). The value for “TTGGTGCATTTTGATGTTTTTTCTCTTGTAACTTTTATTCCGGAGTCACCTAGTGCAG” was 12600 fluorescence intensity (a.u.). To “ATCTTGTTCCTTTTTTACCTGCATGCTATGTTCCTATTAACGGAGTCACCTAGTGCAG” belongs 15200 fluorescence intensity (a.u.). In the case of “TCCGGGCCCCGCTTAGATGTGGGCCCACCGGGTCATTGACCGGAGTCACCTAGTGCAG”, the binding signal was 9560 fluorescence intensity (a.u.).

Regarding “GCCCTACAAATCTCGCGCCGCCGCCGCTGCTCTGCTTTCTCGGAGTCACCTAGTGCAG”, the binding signal is 13800 fluorescence intensity (a.u.). The value for “GGAGGTTAATTCGTACTTCTACAGTAGCAGGGGTAATTTTCGGAGTCACCTAGTGCAG” was 11700 fluorescence intensity (a.u.); that for “GGGCTCTCTGCCTCTCTCTCTCTCTTGTCGCCACCAAAAACGGAGTCACCTAGTGCAG” was 9620 fluorescence intensity (a.u.). To “ACTCCATCTCCTTGCTGATTATGAATTCCAGCACCCTCATCGGAGTCACCTAGTGCAG” belongs 11000 fluorescence intensity (a.u.).

“GGACCAAACTTGCATTGCTGGAACTTTTTCTTTGGCTTGTCGGAGTCACCTAGTGCAG”: the binding signal is 9900 fluorescence intensity (a.u.). As to “TCGGACTCCCACAAACAGGACCCTATACACATTCGACAGCCGGAGTCACCTAGTGCAG”, the binding signal was 8620 fluorescence intensity (a.u.). To “CCATGTGTCCTCCATTCTTGTACTTAATCTCTTCTTATTTCGGAGTCACCTAGTGCAG” belongs 11000 fluorescence intensity (a.u.); to “TCCTGCGCTACTCTGCCCACCGCGCTCGCCCGTCGTCGCTCGGAGTCACCTAGTGCAG”, 9200 fluorescence intensity (a.u.); to “CATTGATCCACTCATCGTTTGATTCACCTGTAACTGTAACCGGAGTCACCTAGTGCAG”, 11100 fluorescence intensity (a.u.). As to “GCTGTCTTGTCTGCAGTCTGCACTCTCTGAATTCAGAAGTCGGAGTCACCTAGTGCAG”, the binding signal was 9430 fluorescence intensity (a.u.).

As for “TCTTACTTTATATTTCTTATTTGGTGCCATTGATCAATACCGGAGTCACCTAGTGCAG”, the binding signal is 11800 fluorescence intensity (a.u.). The value for “TCTTCCCTTTGAGGCTTTCACTCCTCTCGTTATAAAAGCACGGAGTCACCTAGTGCAG” was 9730 fluorescence intensity (a.u.); that for “TCTCTCTCTCTCTCAATCCTCTCTGGACTCGTCCGACGGCCGGAGTCACCTAGTGCAG” was 8220 fluorescence intensity (a.u.). To “TGAAGCTTAGTTTTGTTGGCCATTCCATTGGGAACGTTATCGGAGTCACCTAGTGCAG” belongs 10400 fluorescence intensity (a.u.); to “CTGCCTCGCCCCGCCGGCCTCCTCCCGACCTACCGCCACCCGGAGTCACCTAGTGCAG”, 8390 fluorescence intensity (a.u.).

For “CCCTTGTCGCCGGACGAATTGAAGCTCGCCGCCGCCGCCGCGGAGTCACCTAGTGCAG”, the binding signal was 8480 fluorescence intensity (a.u.). To “TTTATTGTTGTTTTTGGGTTGGTTTGGTTTGATTCCGATGCGGAGTCACCTAGTGCAG” belongs 9120 fluorescence intensity (a.u.); to “ATTATCGATACCCTTGTACCGTGTATCCTGCATTGTCTATCGGAGTCACCTAGTGCAG”, 8020 fluorescence intensity (a.u.); to “TGTTTATTCTCTTCCCATTTATCGATTGTTTCTTTTAAGTCGGAGTCACCTAGTGCAG”, 8920 fluorescence intensity (a.u.). To “TTTCAGTTTTATCCATTACGCCTATGCTTTGTTTTCCAATCGGAGTCACCTAGTGCAG” belongs 11800 fluorescence intensity (a.u.); to “GCCGCTCTCTCCAGATCTGCCAGCGCTCACCGCTCCTTCGCGGAGTCACCTAGTGCAG”, 9390 fluorescence intensity (a.u.).

Turning to “CGCGTCGCCATCGCTATCTCCTACCGGAATCTGGAACCCTCGGAGTCACCTAGTGCAG”, the binding signal is 8190 fluorescence intensity (a.u.). The value for “ACTATTTCTTCATGTTACATAATTCTCCTTGTTTAAGTCCCGGAGTCACCTAGTGCAG” was 8390 fluorescence intensity (a.u.). To “TATGTTGACAAATTTGAGGCGGTTTGTATCTTTCACTTTCCGGAGTCACCTAGTGCAG” belongs 10600 fluorescence intensity (a.u.).
